Measured values published in PMC3427169, “Interaction of Mycobacterium tuberculosis RshA and SigH Is Mediated by Salt Bridges” (PLoS ONE, 2012).
These are yes or no findings as the source states them, for the method shown. In cells and extracts the contact can be indirect. Some binding calls cover weakened binding; strength is not graded here. Tags and fused reporters may be left off the sequences shown.

Chains of the proteins cited; added tags and fusions are not shown.
UniProt P9WGH9: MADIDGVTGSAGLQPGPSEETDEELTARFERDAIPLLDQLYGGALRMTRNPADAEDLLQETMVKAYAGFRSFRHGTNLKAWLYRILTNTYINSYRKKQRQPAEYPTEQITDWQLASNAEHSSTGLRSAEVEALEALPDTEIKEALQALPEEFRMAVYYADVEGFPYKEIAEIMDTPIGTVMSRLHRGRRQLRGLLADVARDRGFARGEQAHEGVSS

T1: GST-tagged RshA, wild type (pGEX4T-1) (Mycobacterium tuberculosis H37Rv) (UniProt P9WJ69)
T1 sequence: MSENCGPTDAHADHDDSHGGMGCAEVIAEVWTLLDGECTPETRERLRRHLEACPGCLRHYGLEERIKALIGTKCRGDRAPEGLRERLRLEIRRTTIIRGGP


What was measured:
[1] = target: T1, GST-tagged RshA, wild type (pGEX4T-1) (Mycobacterium tuberculosis H37Rv); assay: pull-down; soluble fractions of two E. coli lysates (5.0 mg crude protein each; GST fusion and 6xHis protein) mixed in 50 mM Tris HCl pH 7.5, 100 mM NaCl, 10 mM DTT, 0.01% Triton X-100, 4°C 3 h; glutathione resin 2 h 22°C; washes up to 300 mM NaCl; Coomassie and anti-6xHis blot
[2] = target: GST-tagged SigH, wild type (pGEX4T-1) (Mycobacterium tuberculosis H37Rv) (UniProt P9WGH9); assay: as above

Row | Molecule | binding [1] | binding [2]
1 | Mycobacterium tuberculosis SigH, 6xHis-tagged (pET29a) (from UniProt P9WGH9 1-216) | binds | –
2 | Mycobacterium tuberculosis anti-sigma factor RshA, 6xHis-tagged (pET29a) (natural protein, also called WT RshA; 6xHis:RshA; not shown: His6, C-terminal, kept) MSENCGPTDAHADHDDSHGGMGCAEVIAEVWTLLDGECTPETRERLRRHLEACPGCLRHYGLEERIKALIGTKCRGDRAPEGLRERLRLEIRRTTIIRGGP | – | binds
